From patent US10487307B2, “Culture method for pluripotent stem cells” (FUJIFILM CORPORATION, priority 2013, dated 2019)
Some results were stated once for a whole list of compounds, not compound by compound.

B1: RCP-11: recombinant polypeptide for culture, SEQ ID NO: 25; vitronectin positions 1-55, 269-277, 295-341, 342-373, C274S (protein)
chain: MDQESCKGRCTEGFNVDKKCQCDELCSYYQSCCTDYTAECKPQVTRGDVFTMPEDESQEESEGSEDIFELLFWGRTSAGTRQPQFISRDWHGVPGQVDAAMAGRIYISGMAPRPSLAKKQRFRHRNRKGYRSQRGHSRGRNQN
modifications: Vitronectin-derived Recombinant Protein (RCP-11)
notes: vitronectin positions 1-55, 269-277, 295-341, 342-373, C274S
B2: RCP-2: recombinant polypeptide for culture, SEQ ID NO: 16; vitronectin positions 1-55 and 342-373 (protein)
chain: MDQESCKGRCTEGFNVDKKCQCDELCSYYQSCCTDYTAECKPQVTRGDVFTMPEDEPRPSLAKKQRFRHRNRKGYRSQRGHSRGRNQN
modifications: Vitronectin-derived Recombinant Protein (RCP-2)
B3: RCP-3: recombinant polypeptide for culture, SEQ ID NO: 17; vitronectin positions 1-55, 322-341, 342-373 (protein)
chain: MDQESCKGRCTEGFNVDKKCQCDELCSYYQSCCTDYTAECKPQVTRGDVFTMPEDEGVPGQVDAAMAGRIYISGMAPRPSLAKKQRFRHRNRKGYRSQRGHSRGRNQN
modifications: Vitronectin-derived Recombinant Protein (RCP-3)
B4: RCP-4: recombinant polypeptide for culture, SEQ ID NO: 18; vitronectin positions 1-55, 312-341, 342-373 (protein)
chain: MDQESCKGRCTEGFNVDKKCQCDELCSYYQSCCTDYTAECKPQVTRGDVFTMPEDEQPQFISRDWHGVPGQVDAAMAGRIYISGMAPRPSLAKKQRFRHRNRKGYRSQRGHSRGRNQN
modifications: Vitronectin-derived Recombinant Protein (RCP-4)
B5: RCP-5: recombinant polypeptide for culture, SEQ ID NO: 19; vitronectin positions 1-55, 302-341, 342-373 (protein)
chain: MDQESCKGRCTEGFNVDKKCQCDELCSYYQSCCTDYTAECKPQVTRGDVFTMPEDEFWGRTSAGTRQPQFISRDWHGVPGQVDAAMAGRIYISGMAPRPSLAKKQRFRHRNRKGYRSQRGHSRGRNQN
modifications: Vitronectin-derived Recombinant Protein (RCP-5)
B6: RCP-7: recombinant polypeptide for culture, SEQ ID NO: 21; vitronectin positions 1-55, 269-373, C274S (protein)
chain: MDQESCKGRCTEGFNVDKKCQCDELCSYYQSCCTDYTAECKPQVTRGDVFTMPEDESQEESEGSSLSAVFEHFAMMQRDSWEDIFELLFWGRTSAGTRQPQFISRDWHGVPGQVDAAMAGRIYISGMAPRPSLAKKQRFRHRNRKGYRSQRGHSRGRNQN
modifications: Vitronectin-derived Recombinant Protein (RCP-7)
notes: vitronectin positions 1-55, 269-373, C274S
B7: RCP-8: recombinant polypeptide for culture, SEQ ID NO: 22; vitronectin positions 1-55, 269-373, 374-379, C274S (protein)
chain: MDQESCKGRCTEGFNVDKKCQCDELCSYYQSCCTDYTAECKPQVTRGDVFTMPEDESQEESEGSSLSAVFEHFAMMQRDSWEDIFELLFWGRTSAGTRQPQFISRDWHGVPGQVDAAMAGRIYISGMAPRPSLAKKQRFRHRNRKGYRSQRGHSRGRNQNSRRPSR
modifications: Vitronectin-derived Recombinant Protein (RCP-8)
notes: vitronectin positions 1-55, 269-373, 374-379, C274S
B8: RCP-1: recombinant polypeptide for culture, SEQ ID NO: 15; human vitronectin positions 1-55 and 269-459 with N-terminal methionine (protein)
chain: MDQESCKGRCTEGFNVDKKCQCDELCSYYQSCCTDYTAECKPQVTRGDVFTMPEDEPSQEECEGSSLSAVFEHFAMMQRDSWEDIFELLFWGRTSAGTRQPQFISRDWHGVPGQVDAAMAGRIYISGMAPRPSLAKKQRFRHRNRKGYRSQRGHSRGRNQNSRRPSRATWLSLFSSEESNLGANNYDDYRMDWLVPATCEPIQSVFFFSGDKYYRVNLRTRRVDTVDPPYPRSIAQYWLGCPAPGHL
modifications: Vitronectin-derived Recombinant Protein (RCP-1)
B9: RCP-10: recombinant polypeptide for culture, SEQ ID NO: 24; vitronectin positions 1-55, 269-373, 374-399, C274S (protein)
chain: MDQESCKGRCTEGFNVDKKCQCDELCSYYQSCCTDYTAECKPQVTRGDVFTMPEDESQEESEGSSLSAVFEHFAMMQRDSWEDIFELLFWGRTSAGTRQPQFISRDWHGVPGQVDAAMAGRIYISGMAPRPSLAKKQRFRHRNRKGYRSQRGHSRGRNQNSRRPSRATWLSLFSSEESNLGANNYD
modifications: Vitronectin-derived Recombinant Protein (RCP-10)
notes: vitronectin positions 1-55, 269-373, 374-399, C274S
B10: RCP-6: recombinant polypeptide for culture, SEQ ID NO: 20; vitronectin positions 1-55, 269-459, C274S (protein)
chain: MDQESCKGRCTEGFNVDKKCQCDELCSYYQSCCTDYTAECKPQVTRGDVFTMPEDESQEESEGSSLSAVFEHFAMMQRDSWEDIFELLFWGRTSAGTRQPQFISRDWHGVPGQVDAAMAGRIYISGMAPRPSLAKKQRFRHRNRKGYRSQRGHSRGRNQNSRRPSRATWLSLFSSEESNLGANNYDDYRMDWLVPATSEPIQSVFFFSGDKYYRVNLRTRRVDTVDPPYPRSIAQYWLGSPAPGHL
modifications: Vitronectin-derived Recombinant Protein (RCP-6)
notes: vitronectin positions 1-55, 269-459, C274S
B11: RCP-9: recombinant polypeptide for culture, SEQ ID NO: 23; vitronectin positions 1-55, 269-373, 374-389, C274S (protein)
chain: MDQESCKGRCTEGFNVDKKCQCDELCSYYQSCCTDYTAECKPQVTRGDVFTMPEDESQEESEGSSLSAVFEHFAMMQRDSWEDIFELLFWGRTSAGTRQPQFISRDWHGVPGQVDAAMAGRIYISGMAPRPSLAKKQRFRHRNRKGYRSQRGHSRGRNQNSRRPSRATWLSLFSSE
modifications: Vitronectin-derived Recombinant Protein (RCP-9)
notes: vitronectin positions 1-55, 269-373, 374-389, C274S

Experiments:
[1] = Aggregation after dialysis of purified polypeptide solution; format: physicochemical; details: polypeptides of about 80 to 170 residues with GRAVY −1.70 to −0.975
Procedure: For RCP-1 to RCP-11, each of the purified polypeptide solutions was dialyzed using Slide-A-Lizer (3.5 K MWCO.). Basically, by using a dialysis buffer (PBS, 1.5 M NaCl, 0.5 M L-arginine, 1 mM EDTA, pH 7.4) as an outer dialysate, urea was removed by stepwise dialysis. The concentration of the end-product of dialysis was calculated from the absorbence at 280 nm by using NanoDrop (Thermo Fisher Scientific Inc.).
Whether or not aggregation was occurred was evaluated based on the scale of A, and B as shown below.
G: The formation of an aggregate was not observed.
A: The formation of particles having a particle size of about 100 nm was observed.
B: The formation of an aggregation of particles having a particle size of equal to or greater than 1 mm was visually observed.

iPS cells = assay: Growth evaluation, number of cells after 3 days; format: cell-based, human; details: Table 9 and FIG. 2
Procedure: By adding RCP-1 to RCP-11 and Human Recombinant Laminin-511 as control at the concentration shown in Table 9, samples 1 to 12 were prepared. The samples were seeded into a 96-well plate, onto which each of the polypeptides was adsorbed in the same manner as in <Cell adhesiveness evaluation 1>, at a ratio of 5,000 cells/well and cultured for 3 days in a CO2 incubator at 37° C. The number of cells after 3 days was calculated in the same manner as in <Cell adhesiveness evaluation 1>. In Table 9, the number of cells after 3 days is expressed as a ratio calculated by regarding the number of cells obtained by using the sample 1 as being 100%.

Row | Molecule | formation of an aggregate [1] | cell growth rate / growth ability compared with controls (iPS cells)
1 | B1 | inhibited from forming an aggregate | growth ability higher than that of RCP-21
2 | B2 | inhibited from forming an aggregate | growth ability higher than that of RCP-21
3 | B3 | inhibited from forming an aggregate | growth ability higher than that of RCP-21
4 | B4 | inhibited from forming an aggregate | growth ability higher than that of RCP-21
5 | B5 | inhibited from forming an aggregate | growth ability higher than that of RCP-21
6 | B6 | inhibited from forming an aggregate | growth ability higher than that of RCP-21
7 | B7 | inhibited from forming an aggregate | growth ability higher than that of RCP-21
8 | B8 | – | growth ability higher than that of RCP-21
9 | B9 | – | growth ability higher than that of RCP-21
10 | B10 | – | growth ability higher than that of RCP-21
11 | B11 | – | growth ability higher than that of RCP-21
